We go through 50 compounds from the supplement of paper PMC6414424.

Structures can show the parent of a compound that is named as a salt. ± gives the standard deviation of the averaged measurements. The list shows a part of the results.

The assay relates to APPdp1-6 iPSC-derived neurons. Put plainly: pThr231Tau/total Tau ratio Z-score vs DMSO vehicle wells; higher = more pThr231Tau relative to total Tau. The conditions noted are these: 5 µM; treatment time 5 days.
Regarding `C=C1C[C@H]2[C@@H]3C=C(C)C4=CC(=O)CC[C@]4(C)[C@H]3CC[C@]2(C)[C@@]1(OC(C)=O)C(C)=O` [Prestw-1435], the “pThr231Tau/total Tau ratio Z-score” value is -0.271 ± 1.4. Consider `N[C@H]1C(O)O[C@H](CO)[C@@H](O)[C@@H]1O` (stereo not given in full) [GLUCOSAMINE HYDROCHLORIDE    Therap cat:  Antiarthritic], for which the “pThr231Tau/total Tau ratio Z-score” value is -0.236 ± 0.42. Regarding `OCCN1CCN(CCCN2c3ccccc3Sc3ccc(Cl)cc32)CC1` [Prestw-125], the “pThr231Tau/total Tau ratio Z-score” value is -2.44 ± 0.99. On to `CN(C)CCc1c[nH]c2ccc(Cn3cncn3)cc12` [RIZATRIPTAN BENZOATE, 5HT-1B/1D agonist, antimigraine], for which the “pThr231Tau/total Tau ratio Z-score” value was -1.3 ± 0.24. Take `Nc1ccc(S(=O)(=O)c2ccc(N)cc2)cc1` [Prestw-35]: the “pThr231Tau/total Tau ratio Z-score” value was -0.0475 ± 0.99. For the compound `OC[C@H]1O[C@@H](Oc2ccc(O)cc2)[C@H](O)[C@@H](O)[C@@H]1O` [Prestw-1026], the “pThr231Tau/total Tau ratio Z-score” value was -0.776 ± 1.2. With `CCCCC(=O)N(Cc1ccc(-c2ccccc2-c2nn[nH]n2)cc1)[C@H](C(=O)O)C(C)C` [VALSARTAN, Angiotensin II inhibitor, antihypertensive], the “pThr231Tau/total Tau ratio Z-score” value came out at 0.341 ± 0.87. For `N=C(N)NCC1COC2(CCCCC2)O1` (stereo not given) [Prestw-767] the value was 0.478 ± 1.6; for `CC1(C)OC(=O)NC1=O` [Prestw-829], 0.348 ± 1.7; for `Nc1ccc(C(=O)NCC(=O)O)cc1` [Prestw-895], -0.167 ± 1.1. Consider `COc1ccc(NS(=O)(=O)c2ccc(N)cc2)nn1` [Prestw-724], for which the “pThr231Tau/total Tau ratio Z-score” value was -1.11 ± 0.37. `Cn1nnnc1SCC1=C(C(=O)O)N2C(=O)[C@@H](NC(=O)[C@H](O)c3ccccc3)[C@H]2SC1` [Prestw-747]: the “pThr231Tau/total Tau ratio Z-score” value was -1.33 ± 0.54.

Turning to `CCC[C@H](N[C@@H](C)C(=O)N1[C@H](C(=O)O)C[C@@H]2CCCC[C@@H]21)C(=O)OCC` [Prestw-1101], the “pThr231Tau/total Tau ratio Z-score” value amounted to 1.06 ± 0.87. `CC(C)[C@H](N)C(=O)OCCOCn1cnc2c(=O)[nH]c(N)nc21` [Prestw-1505]: the “pThr231Tau/total Tau ratio Z-score” value is 1.48 ± 1.3. The same measure for `CN(C)C(=N)N=C(N)N` [Prestw-4]: 0.2 ± 1; for `CO[C@@H]1[C@@H](OC(N)=O)[C@@H](O)[C@H](Oc2ccc3c(O)c(NC(=O)c4ccc(O)c(CC=C(C)C)c4)c(=O)oc3c2C)OC1(C)C` [Prestw-834]: 0.135 ± 1.8; for `CC(=O)Oc1cccc(O)c1`: 0.491 ± 0.014. For the compound `CCN1CCN(C(=O)N[C@@H](C(=O)N[C@@H]2C(=O)N3[C@@H]2SC(C)(C)[C@@H]3C(=O)O)c2ccccc2)C(=O)C1=O` [Prestw-755], the “pThr231Tau/total Tau ratio Z-score” value amounted to 0.165 ± 0.99. With `CN(C)CCC[C@@]1(c2ccc(F)cc2)OCc2cc(C#N)ccc21` [Prestw-1271], the “pThr231Tau/total Tau ratio Z-score” value is -1.03 ± 0.41. For `CN(C)CCC[C@@]1(c2ccc(F)cc2)OCc2cc(C#N)ccc21` [Prestw-692], the “pThr231Tau/total Tau ratio Z-score” value was -0.0616 ± 0.4. With `CCCC(=O)Nc1ncnc2c1ncn2[C@@H]1O[C@@H]2COP(=O)(O)O[C@H]2[C@H]1OC(=O)CCC` [Prestw-813], the “pThr231Tau/total Tau ratio Z-score” value is -1.15 ± 0.88.

On to `CCCC(=O)Nc1ncnc2c1ncn2[C@@H]1O[C@@H]2COP(=O)(O)O[C@H]2[C@H]1OC(=O)CCC` [BUCLADESINE    Therap cat: vasodilator], for which the “pThr231Tau/total Tau ratio Z-score” value is 0.484 ± 1.1. Take `O=C(CNC(=O)c1ccc(Cl)cc1)NO` [BENURESTAT, urease inhibitor]: the “pThr231Tau/total Tau ratio Z-score” value amounted to 1.12 ± 1.5.

Take `CN1CCCC(n2nc(Cc3ccc(Cl)cc3)c3ccccc3c2=O)CC1` (stereo not given) [Prestw-1130]: the “pThr231Tau/total Tau ratio Z-score” value came to 0.823 ± 0.37. For the compound `CN1CCCCC1CCN1c2ccccc2Sc2ccc([S+](C)[O-])cc21` (stereo not given) [Prestw-529], the “pThr231Tau/total Tau ratio Z-score” value came to 0.987 ± 0.42.

With `NC(=O)N/N=C/c1ccc([N+](=O)[O-])o1` [Prestw-492], the “pThr231Tau/total Tau ratio Z-score” value worked out at 0.394 ± 1.1. Regarding `CCOC(=O)OC(C)OC(=O)[C@@H]1N2C(=O)[C@@H](NC(=O)[C@H](N)c3ccccc3)[C@H]2SC1(C)C` (stereo not given in full) [Prestw-416], the “pThr231Tau/total Tau ratio Z-score” value was -0.051 ± 1. As to `CCOC(=O)[C@H](CCc1ccccc1)N[C@H]1CCc2ccccc2N(CC(=O)O)C1=O` [Prestw-1129], the “pThr231Tau/total Tau ratio Z-score” value came to 0.249 ± 1.4. On to `COC1=C(OC)C(=O)C(CCCCCCCCCCO)=C(C)C1=O` [Prestw-1288], for which the “pThr231Tau/total Tau ratio Z-score” value is -1 ± 0.32.

As for `NCCCC[C@H](N[C@@H](CCc1ccccc1)C(=O)O)C(=O)N1CCC[C@H]1C(=O)O` [Prestw-301], the “pThr231Tau/total Tau ratio Z-score” value is -0.783 ± 1.3. As to `O=C(Nc1cccc2c(=O)cc(-c3nnn[nH]3)oc12)c1ccc(OCCCCc2ccccc2)cc1` [Prestw-1317], the “pThr231Tau/total Tau ratio Z-score” value is -1.15 ± 1.1. Turning to `CC(C)(C)NC[C@H](O)COc1nsnc1N1CCOCC1` [Prestw-948], the “pThr231Tau/total Tau ratio Z-score” value was -0.151 ± 1.4. As for `C[C@]12CCC(=O)C=C1CC[C@@H]1[C@@H]2[C@@H](O)C[C@@]2(C)[C@H]1CC[C@]2(O)C(=O)COC(=O)CCC(=O)O` [HYDROCORTISONE HEMISUCCINATE    Therap cat:  Glucocorticoid], the “pThr231Tau/total Tau ratio Z-score” value is -1.31 ± 1.6.

Regarding `O=C(Cc1cccs1)N[C@@H]1C(=O)N2C(C(=O)[O-])=C(C[n+]3ccccc3)CS[C@H]12` [CEPHALORIDINE    Therap cat: antimicrobial], the “pThr231Tau/total Tau ratio Z-score” value stood at 0.745 ± 0.1. In the case of `Cc1scc2c1N(C(=O)CN1CCN(C)CC1)c1ccccc1NC2=O` [Prestw-303], the “pThr231Tau/total Tau ratio Z-score” value is -0.847 ± 0.13.

Turning to `c1ccc(C2CN3CCSC3=N2)cc1` (stereo not given) [Prestw-545], the “pThr231Tau/total Tau ratio Z-score” value was found to be 0.231 ± 1.4. The same measure for `OC[C@H]1O[C@H]([S-])[C@H](O)[C@@H](O)[C@@H]1O.[Au+]` [AUROTHIOGLUCOSE, antirheumatic]: -3.68 ± 0.68. For the compound `CCCN[C@H]1CCc2nc(N)sc2C1` [Prestw-1316], the “pThr231Tau/total Tau ratio Z-score” value was found to be 1.32 ± 0.92. As to `Cc1cc(=O)oc2cc(O)ccc12` [Prestw-901], the “pThr231Tau/total Tau ratio Z-score” value was -0.424 ± 0.2.

As for `CC(COc1ccccc1)N(CCCl)Cc1ccccc1` (stereo not given) [Prestw-944], the “pThr231Tau/total Tau ratio Z-score” value was -0.357 ± 0.46. As to `CCCNC(C)C(=O)Nc1ccccc1C` (stereo not given) [Prestw-199], the “pThr231Tau/total Tau ratio Z-score” value was -0.0608 ± 0.68.

As for `COc1ccc(CN(CCN(C)C)c2ccccn2)cc1` [Prestw-289], the “pThr231Tau/total Tau ratio Z-score” value was determined as 0.374 ± 0.13. Regarding `CC(=O)c1ccc(S(=O)(=O)NC(=O)NC2CCCCC2)cc1` [Prestw-55], the “pThr231Tau/total Tau ratio Z-score” value was determined as 1.14 ± 0.99.

Take `NCCC[C@H](N)C(=O)O`: the “pThr231Tau/total Tau ratio Z-score” value worked out at 0.236 ± 0.69. For `Clc1ccc(C(Cn2ccnc2)OCc2c(Cl)cccc2Cl)c(Cl)c1` (stereo not given) [Prestw-127] the value was 0.347 ± 1.1; for `NC(=O)N1c2ccccc2C=Cc2ccccc21` [Prestw-52], 0.301 ± 1. As for `CN(C)CCN(Cc1cccs1)c1ccccn1` [Prestw-342], the “pThr231Tau/total Tau ratio Z-score” value was -0.446 ± 1.5. As for `COc1c(O[C@@H]2O[C@H](CO)[C@@H](O)[C@H](O)[C@H]2O)cc2c(c1OC)-c1ccc(SC)c(=O)cc1[C@@H](NC(C)=O)CC2` [Prestw-539], the “pThr231Tau/total Tau ratio Z-score” value was -2.05 ± 0.46. For `O=C(Cn1ccnc1[N+](=O)[O-])NCCO` [Prestw-649], the “pThr231Tau/total Tau ratio Z-score” value was -0.463 ± 0.73. Regarding `CC(=O)OCC(COC(C)=O)OC(C)=O` [TRIACETIN    Therap cat: topical antifungal], the “pThr231Tau/total Tau ratio Z-score” value turned out to be 1.13 ± 0.3.
